Source: PubChem BioAssay AID493014 (National Center for Advancing Translational Sciences (NCATS), 2011)
Hit rate of the full screen: of about 340,000 compounds, about 170 (0.05%) were called active. Inconclusive results, whose numbers are uncertain, are shown with a selection of clear calls. The call rests on the fitted dose curve; in most records, active means well fitted inhibition curve with a large enough effect in the signal ratio, with a control signal flat (not every such curve was filed as active); inconclusive means small, poorly fitted or top-dose-only effect, or effect the other way, or a change in a side signal; inactive means flat fitted curve, though single readings scatter; the % refers to the signal ratio. Where the call is inconclusive, the potency comes from a doubtful curve fit.

Experiment: qHTS Assay to Find Inhibitors of Chronic Active B-Cell Receptor Signaling;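 on activity change, negative = inhibition: plate controls were basal doxycycline-induced cells for no effect and cells given 10 µM MG132 for full effect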
Conditions: ABC-DLBCL IkBa-CBG/CBR reporter, luminescence ratio (green luciferase fused to IkBa over red control in TMD8 lymphoma cells), 4 h; activity change, negative = inhibition: at 46.1 µM (top of the series) unless noted
Summary of the method: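 TMD8 ABC-DLBCL cells carrying doxycycline-inducible green luciferase fused to IkappaBalpha plus unfused red luciferase were exposed to compounds (up to 46 uM) for 4 hrs at 37C. Activity came from the overlap-corrected green/red luminescence ratio.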
Potency means the concentration at half of the fitted maximal effect.

Structure (SMILES) | Potency | activity change, negative = inhibition
Cc1ccc(C)c(S(=O)(=O)N(C(=O)c2ccncc2)c2ccc(OC(=O)c3ccncc3)cc2)c1 | inconclusive: 35.5 µM [rising, single point] | –
COc1cc(OC)cc(C(=O)Nc2ccccc2C(=O)NC2CC2)c1 | inconclusive: 18.4 µM [falling, partial curve, poor fit] | –
CCCN1CCn2c3c(c4cc(Br)ccc42)CCCC31 (stereo unspecified) | – | inconclusive: 9.91%
C=CCOC(=O)C1=C(C)NC(=O)NC1c1cc(Cl)cc(Cl)c1OC (stereo unspecified) | – | inconclusive: -12.5%
CN(C)S(=O)(=O)c1ccc(Cl)c(NC(=O)COC(=O)c2ccc(O)cc2)c1 | – | inconclusive: 4.63%
Cc1ccc(OC(C)C(=O)Nc2ccc3c(c2)n(C)c(=O)n3C)c(C)c1 (stereo unspecified) | – | inconclusive: 0.0063%
Fc1ccccc1-n1c(-c2ccc3ccccc3n2)n[nH]c1=S | – | inconclusive: -23.5%
CC[C@@H](C)[C@H](N)C(=O)NC[C@H]1O[C@@H](n2cnc3c(N)ncnc32)[C@H](O)[C@@H]1O | – | inconclusive: -0.73%
CCC(C)NC(=O)CNC(=O)Cn1c(C)cc2ccccc2c1=O (stereo unspecified) | – | inconclusive: 8.49%
C[C@@H](CSc1ccc(Br)cc1)CN1CC[C@H](NC(=O)OCc2ccccc2)CCC1=O | – | inconclusive: -4.1%
O=C(NC(=S)N1CCN(c2nc(-c3ccccc3)cs2)CC1)c1cncc(Br)c1 | – | inconclusive: -8.88%
Cc1c(Oc2ccc(C(F)(F)F)cc2[N+](=O)[O-])ccc2c3c(c(=O)oc12)CCC3 | – | inconclusive: -10.9%
CC(=O)N(/N=C1\Sc2ccccc2C1=O)c1ccccc1C | inconclusive: 1.78 µM [falling, full curve] | –
O=[N+]([O-])c1ccccc1-c1cc(-c2cc(Cl)ccc2O)n[nH]1 | – | inactive: 6.26%
O=C(c1ccc(Oc2ccc([N+](=O)[O-])cc2)cc1)N1CCCCCC1 | – | inconclusive: -8.4%
Cc1ccc(-n2nnnc2CNC(=O)c2ccc(Br)o2)cc1C | – | inactive: -2.33%
O=C(Nc1nc(-c2ccc(S(=O)(=O)N3CCOCC3)cc2)cs1)c1ccccc1 | – | inconclusive: 5.31%
CC(C)OC(=O)c1cc2c(ccn2C)n1CC(=O)N1CCC(Cc2ccccc2)CC1 | – | inactive: -3.46%
CCCOc1ccc(-c2c(C(=O)N/N=C/c3ccccc3OCC)nnn2-c2nonc2N)cc1 | – | inactive: -16.7%
OCCN1CCN(C(=S)c2ccc(Cl)c(Cl)c2)CC1 | – | inconclusive: -5.44%
Cc1ccc2c(COC(=O)c3ccccc3F)cc(=O)oc2c1 | – | inconclusive: 14.8%
Cc1ccc(Nc2nnc(SC(C)C(=O)Nc3c(C)n(C)n(-c4ccccc4)c3=O)s2)cc1 (stereo unspecified) | inconclusive: 2.59 µM [falling, full curve] | –
CCCCC(=O)Nc1ccc(NC(=O)C2CC2)cn1 | – | inconclusive: -0.67%
CC(C)(C)c1ccc(/C=N/NC(=O)c2ccccn2)cc1 | inconclusive: 15.8 µM [falling, partial curve, poor fit] | –
Cc1cccc(NC(=O)C2CCCN(S(=O)(=O)c3cccc4nonc34)C2)c1 (stereo unspecified) | – | inactive: 13.8%
O=C(NCCc1ccc(Cl)cc1)c1ccc(CSCc2ccccc2Cl)o1 | – | inactive: -1.77%

Structure (SMILES) | Potency | activity change, negative = inhibition
CCNC(=O)NC(=O)C(C)OC(=O)CCCSc1nc2ccccc2s1 (stereo unspecified) | – | inconclusive: 14.1%
CC(C)N(Cc1nc(-c2ccccc2)no1)C(=O)COc1ccccc1 | – | inconclusive: -4.96%
COc1ccc2c(c1)CCc1c(C(=O)NC3CCCCC3)noc1-2 | inconclusive: 11.6 µM [falling, single point] | –
O=C(Nc1ccn(Cc2ccccc2)n1)c1ccc2c(c1)OCO2 | – | inconclusive: -0.718%
CCOc1ccc(Oc2ccc(-c3nnc(-c4ccccc4)o3)cc2[N+](=O)[O-])cc1 | – | inconclusive: -9.76%
Cn1c(SCC(=O)c2ccc3c(c2)OCCO3)nnc1C1CC1 | – | inconclusive: 10.2%
Cc1cccc(NC(=O)c2ccc3c(=O)n(CC4CCCO4)c(=S)[nH]c3c2)c1 (stereo unspecified) | – | inconclusive: 19.9%
Cc1ccc(NC(=O)c2cccc(S(=O)(=O)N3CCCCC3)c2)cc1 | – | inconclusive: 3.41%
CC(C)N1C(=O)S/C(=C/c2ccc3c(c2)n(C)c(=O)n3C)C1=O | – | inconclusive: 8.37%
Nc1ccccc1Nc1cc(-c2ccccc2)nn1-c1ccccc1 | – | inactive: 1.43%
CC1CCN(C(=O)CNC(=O)Cc2ccccc2)CC1 | inconclusive: 22.4 µM [falling, single point] | –
N#C/C(=C\c1cn(CC(=O)N2CCCCC2)c2ccccc12)C(=O)NCc1ccc2c(c1)OCO2 | – | inactive: 2.74%
CCOc1ccccc1C(=O)NCc1ccc2c(c1)CCN2C(C)=O | inconclusive: 35.5 µM [falling, single point] | –
CCC(NC(=O)c1cc(COc2ccc(C)nc2)on1)c1ccc(C)cc1 (stereo unspecified) | – | inactive: -0.244%
Cn1c(=O)c2c(nc(OCCc3ccccc3)n2C)n(C)c1=O | inconclusive: 0.794 µM [rising, full curve, poor fit] | –
COc1ccc(-n2[nH]c(C)cc2=O)cc1 | inconclusive: 2 µM [rising, full curve, poor fit] | –
NC(=O)c1ccsc1NC(=O)CSc1ccccc1F | inconclusive: 29.1 µM [falling, single point] | –
COc1ccc(N2CCN(C(CNC(=O)C(C)(C)C)c3ccco3)CC2)cc1 (stereo unspecified) | – | inconclusive: -4.77%
COc1ccc(C(=O)NNC(=O)C2(C)CC2(Br)Br)cc1 (stereo unspecified) | – | inconclusive: -5.43%
Cc1ccc(C)n1-c1sccc1C(=O)O | – | inactive: 9.64%
CC1=NN(C(=O)c2ccccc2F)C(O)(c2ccc(Cl)cc2)C1 (stereo unspecified) | inconclusive: 11.2 µM [falling, single point] | –
Cc1cc(C)cc(-n2ncc3c2CCCC3NC(=O)CCN2CCCC2=O)c1 (stereo unspecified) | – | inactive: 3.86%
N#Cc1cc2ccccc2nc1SCC(=O)Nc1ccccc1N1CCOCC1 | – | inactive: 2.13%
O=[N+]([O-])c1ccccc1-c1ccc(C(=S)N2CCCCC2)o1 | inconclusive: 0.708 µM [falling, partial curve, poor fit] | –
CCCn1c(-c2ccc(F)cc2)n[nH]c1=S | inconclusive: 35.5 µM [cytotoxic, single point] | –
